In PMC6337506 one finds binding data, which are given here for 3 molecules.

Amino acid sequences for entries named in this document (tags omitted). A change or cut given only in a name is not applied to a line headed by its entry.
UniProt O64817: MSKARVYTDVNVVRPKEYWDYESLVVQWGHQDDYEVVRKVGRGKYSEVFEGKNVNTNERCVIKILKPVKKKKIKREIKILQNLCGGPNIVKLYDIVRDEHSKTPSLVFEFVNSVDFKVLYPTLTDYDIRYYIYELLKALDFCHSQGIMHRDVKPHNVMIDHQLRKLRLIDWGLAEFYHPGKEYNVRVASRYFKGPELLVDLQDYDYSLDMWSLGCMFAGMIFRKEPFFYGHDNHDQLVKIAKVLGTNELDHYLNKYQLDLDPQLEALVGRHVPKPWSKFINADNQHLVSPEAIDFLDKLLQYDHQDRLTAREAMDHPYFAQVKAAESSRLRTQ

These are yes or no findings as the source states them, for the method shown. Binding calls can cover weak binding; strength is not graded here. Tags and fused reporters may be left off the sequences shown.

In assay [1] the target is TACO LEAF (TCO) fused to the GAL4 DNA-binding domain (Arabidopsis thaliana) (UniProt Q5XV74). Briefly: two-hybrid; directed yeast two-hybrid; TCO fused to the GAL4 DNA-binding domain, CK2 alpha subunits fused to the GAL4 activation domain; positive interactions indicated by blue coloration.
Assay [2] shares this target. The assay is described as follows: two-hybrid; yeast two-hybrid screen; TCO as bait, Arabidopsis floral cDNA library as prey; 1.7 × 10^6 yeast transformants.

In the case of “AtCKA3(full-length) fused to the GAL4 activation domain (from UniProt O64817)”, the binding result in assay [1] was “no binding”.

B1: ∆AtCKA1(aa25-409) fused to the GAL4 activation domain (domain or fragment, UniProt Q08467 25-409)
chain: AVLALRAPTAHSPILRSSIVTPTARAVSEVSGCTTIDPDFLVEISDSNQTRAMSKARVYTEVNVIRPKDYWDYESLIVQWGEQDDYEVVRKVGRGKYSEVFEGINVNSKEKCIIKILKPVKKKKIRREIKILQNLCGGPNIVKLLDVVRDQHSKTPSLIFEYVNSTDFKVLYPTLTDYDIRYYIYELLKALDFCHSQGIMHRDVKPHNVMIDHELRKLRLIDWGLAEFYHPGKEYNVRVASRYFKGPELLVDLQDYDYSLDMWSLGCMFAGMIFRKEPFFYGHDNQDQLVKIAKVLGTDELNAYLNKYQLELDPQLEALVGRHSRKPWSKFINADNQHLVSPEAIDFLDKLLRYDHQDRLTAKEAMAHAYFAQVRAAETSRMRSQ
Consider B1, for which the binding entry in assay [2] and in assay [1] was “binds” throughout.

B2: ∆AtCKA2(aa32-403) fused to the GAL4 activation domain (domain or fragment, UniProt Q08466 32-403)
chain: LIPPLTCVNTGTVESDVTGIRFDRCLDTDSLAKISLSTVMSKARVYTDVNVIRPKDYWDYESLNVQWGEQDDYEVVRKVGRGKYSEVFEGINMNNNEKCIIKILKPVKKKKIRREIKILQNLCGGPNIVKLLDVVRDQHSKTPSLIFEYVNSTDFKVLYPTLTDYDIRYYIYELLKALDFCHSQGIMHRDVKPHNVMIDHELRKLRLIDWGLAEFYHPGKEYNVRVASRYFKGPELLVDLQDYDYSLDMWSLGCMFAGMIFRKEPFFYGHDNQDQLVKIAKVLGTDELNAYLNKYQLELDTQLEALVGRHSRKPWSKFINADNRHLVSPEAIDYLDKLLRYDHQDRLTAKEAMAHPYFAQVRAAESSRMRTQ
With B2, the binding entry in assay [2] and in assay [1] was “binds” throughout.
